Results reported in patent US9120792B2, “Fused heterocyclic compound” (Sumitomo Chemical Company, Limited, priority 2012, dated 2015).
Some results were stated once for a whole list of compounds, not compound by compound. For at least one compound, name, drawing or mass did not settle the structure.

Assays:
Type in all cases: in vivo
Plutella xylostella = assay: Test Example 6: sprayed cabbage foliage, Plutella xylostella larvae; settings: 500 ppm, 20 mL/cup sprayed on cabbage, second instar larvae, after 5 days at 25° C.
[1] = tested on: Adoxophyes orana fasciata; assay: Test Example 7: sprayed apple tree, Adoxophyes orana fasciata first-instar; settings: 500 ppm, 20 mL/cup sprayed on apple tree, after 7 days
Culex pipiens pallens = assay: Test Example 10: Culex pipiens pallens last-instar larvae in treated water; settings: active ingredient concentration 3.5 ppm in ion-exchanged water, one day later

Compound	death rate (Plutella xylostella) [%]	death rate [1] [%]	death rate (Culex pipiens pallens) [%]
CCSc1nccn1-c1nc2cc(C(F)(F)F)cnc2n1C [compound 1]	≥ 80		
CCS(=O)(=O)c1ccsc1-c1nc2cc(SC(F)(F)F)cnc2n1C [compound 4]	≥ 80	≥ 90	
CCSc1sccc1-c1nc2cc(C(F)(F)F)cnc2n1C [compound 13]			≥ 91
CCS(=O)(=O)c1sccc1-c1nc2cc(C(F)(F)F)cnc2n1C [compound 14]	≥ 80	≥ 90	
